Experimental data from US20140200135A1, “Carbamoylmethoxy- and carbamoylmethylthio- and carbamoylmethylamino benzamides for combating invertebrate pests” (BASF SE, priority 2011, published 2014).
Some entries share one result that the patent states for a list of compounds.

Assays:
Type in all cases: in vivo
[1] = test system: TOBACCO budworm (Heliothis virescens); assay: Tobacco budworm microtiter diet test, egg and larval mortality; settings: 2500 ppm, 5 days, insect diet
Protocol: For evaluating control of tobacco budworm (Heliothis virescens) the test unit consisted of 96-well-microtiter plates containing an insect diet and 15-25 H. virescens eggs. The compounds were formulated using a solution containing 75% v/v water and 25% v/v DMSO. Different concentrations of formulated compounds were sprayed onto the insect diet at 10 μl, using a custom built micro atomizer, at two replications.
After application, microtiter plates were incubated at about 28±1° C./and about 80±5% relative humidity for 5 days. Egg and larval mortality was then visually assessed.

[2] = test system: Boll weevil (Anthonomus grandis); assay: Boll weevil microtiter diet test, egg and larval mortality; settings: 2500 ppm, 5 days, insect diet
Protocol: For evaluating control of boll weevil (Anthonomus grandis) the test unit consisted of 24-well-microtiter plates containing an insect diet and 20-30 A. grandis eggs.
The compounds were formulated using a solution containing 75% v/v water and 25% v/v DMSO. Different concentrations of formulated compounds were sprayed onto the insect diet at 20 μl, using a custom built micro atomizer, at two replications.
After application, microtiter plates were incubated at about 23±1° C. and about 50±5% relative humidity for 5 days. Egg and larval mortality was then visually assessed.

[3] = test system: Green Peach Aphid (Myzus persicae); assay: Green peach aphid spray test on bell pepper plants, mortality; settings: 2500 ppm; after 5 days; sprayed bell pepper plants
From the text: (§1) The active compounds were formulated in cyclohexanone as a 10,000 ppm solution supplied in tubes. The tubes were inserted into an automated electrostatic sprayer equipped with an atomizing nozzle and they served as stock solutions for which lower dilutions were made in 50% acetone:50% water (v/v). A nonionic surfactant (Kinetic®) was included in the solution at a volume of 0.01% (v/v).
Bell pepper plants at the first true-leaf stage were infested prior to treatment by placing heavily infested leaves from the main colony on top of the treatment plants. Aphids were allowed to transfer overnight to accomplish an infestation of 30-50 aphids per plant and the host leaves were removed. The infested plants were then sprayed by an automated electrostatic plant sprayer equipped with an atomizing spray nozzle. The plants were dried in the sprayer fume hood, removed, and then maintained in a growth room under fluorescent lighting in a 24-hr photoperiod at about 25° C. and about 20-40% relative humidity. Aphid mortality on the treated plants, relative to mortality on untreated control plants, was determined after 5 days.

[4] = test system: Mediterranean Fruitfly (Ceratitis capitata); assay: Mediterranean fruitfly microtiter diet test, egg and larval mortality; settings: 2500 ppm, 5 days, insect diet
Protocol: For evaluating control of Mediterranean fruitfly (Ceratitis capitata) the test unit consisted of microtiter plates containing an insect diet and 50-80 C. capitata eggs.
The compounds were formulated using a solution containing 75% v/v water and 25% v/v DMSO. Different concentrations of formulated compounds were sprayed onto the insect diet at 5 μl, using a custom built micro atomizer, at two replications.
After application, microtiter plates were incubated at about 28±1° C. and about 80±5% relative humidity for 5 days. Egg and larval mortality was then visually assessed.

[5] = test system: Vetch aphid (Megoura viciae); assay: Vetch aphid broad bean leaf disk test, mortality; settings: 2500 ppm; 5 days; adult aphids on broad bean leaf disks
Protocol: For evaluating control of vetch aphid (Megoura viciae) through contact or systemic means the test unit consisted of 24-well-microtiter plates containing broad bean leaf disks.
The compounds were formulated using a solution containing 75% v/v water and 25% v/v DMSO. Different concentrations of formulated compounds were sprayed onto the leaf disks at 2.5 μl, using a custom built micro atomizer, at two replications.
After application, the leaf disks were air-dried and 5-8 adult aphids placed on the leaf disks inside the microtiter plate wells. The aphids were then allowed to suck on the treated leaf disks and incubated at about 23±1° C. and about 50±5% relative humidity for 5 days. Aphid mortality and fecundity was then visually assessed.

[6] = test system: Diamond Backmoth (Plutella xylostella); assay: Diamond backmoth leaf-dip test, mortality; settings: 500 ppm; 72 hours after treatment; 3rd instar larvae on dipped cabbage leaves
Protocol: The active compound was dissolved at the desired concentration in a mixture of 1:1 (vol:vol) distilled water:aceteone. Surfactant (Alkamuls® EL 620) was added at a rate of 0.1% (vol/vol). The test solution was prepared at the day of use.
Leaves of cabbage were dipped in test solution and air-dried. Treated leaves were placed in petri dishes lined with moist filter paper and inoculated with ten 3rd instar larvae. Mortality was recorded 72 hours after treatment. Feeding damages were also recorded using a scale of 0-100%.

[7] = test system: Southern Armyworm (Spodoptera eridiana); 2nd Instar Larvae; assay: Southern armyworm foliar spray test on lima bean, mortality; settings: 500 ppm; 4 days after treatment; lima bean foliage spray
Protocol: as §1
Lima bean plants (variety Sieva) were grown 2 plants to a pot and selected for treatment at the 1st true leaf stage. Test solutions were sprayed onto the foliage by an automated electrostatic plant sprayer equipped with an atomizing spray nozzle. The plants were dried in the sprayer fume hood and then removed from the sprayer. Each pot was placed into perforated plastic bags with a zip closure. About 10 to 11 armyworm larvae were placed into the bag and the bags zipped closed. Test plants were maintained in a growth room at about 25° C. and about 20-40% relative humidity for 4 days, avoiding direct exposure to fluorescent light (24 hour photoperiod) to prevent trapping of heat inside the bags. Mortality and reduced feeding were assessed 4 days after treatment, compared to untreated control plants.

| SMILES | mortality in comparison with untreated controls [1] | mortality in comparison with untreated controls [2] | mortality in comparison with untreated controls [3] | mortality in comparison with untreated controls [4] | mortality in comparison with untreated controls [5] | mortality in comparison with untreated controls [6] | mortality in comparison with untreated controls [7] |
| --- | --- | --- | --- | --- | --- | --- | --- |
| CC(ONC(=O)c1cc(Cl)cc(Cl)c1NC(=O)c1cc(Br)nn1-c1ncccc1Cl)C(N)=O (centres unmarked) [Compound 1-14] | over 75% | over 75% | over 75% | over 75% | over 75% | 100% | 100% |
| Cc1cc(C#N)cc(C(=O)NOC(C(=O)N(C)C)C(C)C)c1NC(=O)c1cc(Br)nn1-c1ncccc1Cl (centres unmarked) [Compound 1-30] | over 75% | over 75% | over 75% | over 75% | – | 100% | 100% |
| Cc1cc(Cl)cc(C(=O)NOCC(=O)Nc2ccccc2)c1NC(=O)c1cc(Br)nn1-c1ncccc1Cl [Compound 1-31] | over 75% | over 75% | over 75% | over 75% | over 75% | 100% | 100% |
| Cc1cc(Cl)cc(C(=O)NOC(C(N)=O)C(C)C)c1NC(=O)c1cc(Br)nn1-c1ncccc1Cl (centres unmarked) [Compound 1-52] | over 75% | over 75% | over 75% | over 75% | over 75% | 100% | 100% |
| Cc1cc(Cl)cc(C(=O)NOCC(=O)NCc2ccccc2)c1NC(=O)c1cc(Br)nn1-c1ncccc1Cl [Compound 1-55] | over 75% | over 75% | over 75% | over 75% | over 75% | 100% | 100% |
| Cc1cc(Cl)cc(C(=O)NOCC(=O)N2CCCC2)c1NC(=O)c1cc(Br)nn1-c1ncccc1Cl [Compound 1-58] | over 75% | over 75% | over 75% | over 75% | – | 100% | 100% |
| CCC(ONC(=O)c1cc(Cl)cc(C)c1NC(=O)c1cc(Br)nn1-c1ncccc1Cl)C(=O)N(C)C (centres unmarked) [Compound 1-60] | over 75% | over 75% | over 75% | over 75% | – | 100% | 100% |
| CNC(=O)C(ONC(=O)c1cc(Cl)cc(Br)c1NC(=O)c1cc(Br)nn1-c1ncccc1Cl)C(C)C (centres unmarked) [Compound 1-64] | over 75% | over 75% | over 75% | over 75% | over 75% | 100% | 100% |
